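Enzyme assay of tryptophanyl-tRNA synthetase; the read-out is not stated. Target: Tryptophan-tRNA ligase, Mycobacterium tuberculosis (UniProt P9WFT3). Compounds at 10 µM. Direction is not recorded; retested compounds ran higher, which suggests that high means inhibition. About 65,000 compounds were tested under these conditions; 0.098% (about 64) showed 50% or more at least once.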

By UniProt entry, the sequences of proteins in these tests, tags left out.
UniProt P9WFT3, whole entry: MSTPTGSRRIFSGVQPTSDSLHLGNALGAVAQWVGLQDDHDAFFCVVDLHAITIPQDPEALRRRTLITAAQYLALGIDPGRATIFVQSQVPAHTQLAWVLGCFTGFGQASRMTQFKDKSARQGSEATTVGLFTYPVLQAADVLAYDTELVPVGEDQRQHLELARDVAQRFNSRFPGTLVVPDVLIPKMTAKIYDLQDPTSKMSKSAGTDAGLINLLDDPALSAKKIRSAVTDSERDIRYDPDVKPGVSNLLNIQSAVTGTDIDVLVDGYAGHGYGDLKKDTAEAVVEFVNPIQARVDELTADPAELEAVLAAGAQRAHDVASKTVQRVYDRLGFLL

Each number is a percent effect as filed. The record does not define 0% and 100%; most values in the screen are far below 50% and negative numbers occur (in some assays of this library far below -100). This is an unselected part of the compounds tested.

- CN(C)C(=O)c1ccc2c(c1)N(C)C(CC(=O)NCc1ncc[nH]1)CO2 (configuration not stated) : -1.754%
- COc1ccc(CNc2cccnc2-n2cccn2)cc1OC : 2.523%
- Cc1nn(C)c(N(C)C)c1CNC1CCc2cc(F)ccc21 (configuration not stated) : 7.553%
- CCc1[nH]c2c(CNc3cnccn3)cc(F)cc2c1C : -1.61%
- CN(C)c1ccc2c(c1)CN(C(=O)c1c[nH]cn1)C2c1cnco1 (configuration not stated) : 4.942%
- Cc1ccc(NC2CCN(C(=O)CCc3ccco3)CC2)nn1 : -0.2916%
- CC(C)NC(=O)NCc1ccnc(N(C)C)n1 : 0.1698%
- O=C(c1ccc(S(=O)(=O)NCc2ccon2)cc1)N1CCCCCC1 : -0.6101%
- O=C(NC1CCC1)[C@@H]1CCO[C@@H]2CCN(CCc3ccccc3)C[C@H]21 : -0.3752%
- CN(C)c1ncnc2c1CCN(c1ccccc1)CC2 : 8.966%
- Cc1nnnn1CCC(=O)N1CCC2(CCC(=O)N(CC3CC3)C2)CC1 : 4.645%
- CCc1ccc(Cn2nccc2NC(=O)C2CCS(=O)(=O)C2)cc1 (configuration not stated) : -2.673%
- CC(=O)N(Cc1ncc(C)o1)C1CCN(Cc2sc(C)nc2C)C1 (configuration not stated) : -3.386%
- CC(C)CCc1noc(C[S+]([O-])CC(=O)NCc2ccccc2)n1 (configuration not stated) : 0.9202%
- Cc1ncc(COc2ccc(N(C)S(C)(=O)=O)cc2)s1 : -3.532%
- Cc1ccc(S(=O)(=O)NC(=O)C2(c3ccc(F)cc3)CCC2)c(C)c1 : 5.874%
- c1ccc(C2CCCN2C2CSCCSC2)nc1 (configuration not stated) : 0.3358%
- O=C(NCC1CC1)[C@H]1CC[C@@H]2[C@@H](CCN2Cc2ccoc2)O1 : 3.018%
- O=C(CCCC1CCCC1)NS(=O)(=O)CC1CC1 : -0.2981%
- COC(CNC(=O)C1CCN(S(C)(=O)=O)CC1)c1ccc(C)s1 (configuration not stated) : -2.101%
- c1ccc2sc(N3CCOC(Cn4cccn4)C3)nc2c1 (configuration not stated) : -22.61%
- CCC(=O)N(CC(N)=O)Cc1cccc(Oc2ccccc2)c1 : 4.113%
- Cc1nsc(NC(=O)NC2(CN3CCCCC3)CCCCC2)n1 : 0.8249%
- CCCn1ncnc1C(C)NC(=O)C1CCN(C(=O)C2CC2)CC1 (configuration not stated) : -3.653%
- CN(Cc1ccco1)Cc1ccccc1CNC(=O)c1csnn1 : -0.97%
- O=C(C1CCOCC1)N1CCN(CC2CC2)c2ncccc2C1 : 0.834%
- c1ccc(-c2ccc(C3CNCCO3)nc2)cc1 (configuration not stated) : -7.917%
- CN(C)C(=O)CN1C[C@@H]2CC[C@H](C1)N(C(=O)Cc1ccccc1Cl)C2 : -2.056%
- CC(C)n1nc2c(cc1=O)CN(CCOc1ccccc1C#N)CC2 : 1.898%
- CN(Cc1ccsc1)C(=O)CN1CCCC1Cn1cccn1 (configuration not stated) : -2.267%
- CCc1ccc(S(=O)(=O)Nc2ccc(F)cc2C(=O)O)s1 : 22.93%
- Cc1ccc(-n2nnc(C(=O)NC(C)C)c2C2CC2)cc1 : -6.236%
- Cc1noc(NC(=O)c2ccc(Br)o2)n1 : 2.18%
- CC(C)NC(=O)CN(C)CC(=O)/N=c1/cc[nH]n1C(C)C1CC1 (configuration not stated) : -7.16%
- CCCN(Cc1ccc(OC)nc1)Cc1ccccc1OC : 8.659%
- Cc1nc(CN2CCN(C(=O)c3scnc3C)CC2)cs1 : 3.522%
- CSCCC(Nc1nc(C)cc(C)n1)C(=O)NCC1CCOCC1 (configuration not stated) : 0%
- O=C(C1CCCN(CCc2ccc3c(c2)CCO3)C1)N1CCCC1 (configuration not stated) : -1.224%
- Cc1cc(C)c2c(N3CCN(CCN4CCOCC4)CC3)ncnc2n1 : -0.1575%

The first 4 entries again:

* CN(C)C(=O)c1ccc2c(c1)N(C)C(CC(=O)NCc1ncc[nH]1)CO2 (configuration not stated) | -1.754%
* COc1ccc(CNc2cccnc2-n2cccn2)cc1OC | 2.523%
* Cc1nn(C)c(N(C)C)c1CNC1CCc2cc(F)ccc21 (configuration not stated) | 7.553%
* CCc1[nH]c2c(CNc3cnccn3)cc(F)cc2c1C | -1.61%

Data taken from ChEMBL document CHEMBL3988442, “University of Dundee, Small-Polar-MMV Screening Library” (2021).